The experiment addresses T1, mouse TGF-β receptor type II on mouse cells (RAW 264.7, MC3T3-E1) (mouse) (UniProt Q62312).
T1 sequence (looked up): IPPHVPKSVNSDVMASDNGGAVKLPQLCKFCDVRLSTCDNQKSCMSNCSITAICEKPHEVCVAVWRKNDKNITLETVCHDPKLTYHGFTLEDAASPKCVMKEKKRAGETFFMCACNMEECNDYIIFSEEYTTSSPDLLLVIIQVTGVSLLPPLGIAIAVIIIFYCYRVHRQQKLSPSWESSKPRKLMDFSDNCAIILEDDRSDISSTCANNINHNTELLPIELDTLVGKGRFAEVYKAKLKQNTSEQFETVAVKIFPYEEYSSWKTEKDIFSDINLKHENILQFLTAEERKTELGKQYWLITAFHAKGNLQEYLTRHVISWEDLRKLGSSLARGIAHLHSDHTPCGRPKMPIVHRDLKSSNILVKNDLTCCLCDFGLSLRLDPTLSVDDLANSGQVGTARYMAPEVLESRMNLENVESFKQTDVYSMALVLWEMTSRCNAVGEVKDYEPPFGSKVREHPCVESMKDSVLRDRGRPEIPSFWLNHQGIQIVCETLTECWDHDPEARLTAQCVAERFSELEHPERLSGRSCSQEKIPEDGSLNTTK
Kind of experiment: inferred by the filing from mouse cell signalling assays (MC3T3-E1 luciferase, RAW 264.7 phospho-Smad).

Results are given in words; binding and its absence hold for the method and conditions named. Some entries that bind do so weakly or less than the wild type.

B1: DOM23h-271-12 (protein)
VH: EVQLLESGGGLVQPGGSLRLSCTASGFTFTEYRMWWVRQAPGKGLEWVSLIEPIGNRTYYANSVRGRFTISRDNSKNTLYLQMNSLRAEDTAVYYCAKQIPGHMWTANPRSDYWGQGTQVTVSS
Take B1: the binding entry is on record as “binds”.

The values above are taken from patent US20120129778A1.
